Source: US20240382619A1
These are yes or no findings as the source states them, for the method shown. Some results given as binding are weak or reduced against the parent protein; the word gives no strength.

The chains behind the UniProt entries cited, without tags or fusion partners. Residues count along the entry.
UniProt P15328, residues 25-234: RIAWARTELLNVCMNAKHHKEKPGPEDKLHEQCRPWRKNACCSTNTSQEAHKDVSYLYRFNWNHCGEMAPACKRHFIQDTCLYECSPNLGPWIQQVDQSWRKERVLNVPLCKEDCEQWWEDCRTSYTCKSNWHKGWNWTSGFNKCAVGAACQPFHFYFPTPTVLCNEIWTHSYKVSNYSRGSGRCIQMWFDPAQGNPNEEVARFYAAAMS

Columns and labels:
[1] = biological target: folate receptor on SKOV3 ovarian cancer cells (UniProt P15328); test: fluorescence microscopy of SKOV3 cells treated with PKH67-stained exosomes
[2] = biological target: folate receptor on SKOV3 ovarian cancer cells (UniProt P15328); test: fluorescence microscopy (Cytation 5) of SKOV3 cells incubated 24 h with PKH67-stained exosomes displaying the peptide

binding [1]: binds
binding [2]: binds
B1: GNSTM-LAMP2-ΔEC/IC-SKOV3 expression product shown on exosomes (cancer targeting peptide …, folate receptor binding peptide, at the target peptide position of … (peptide, not shown: small tags and cut ends; large carriers)
chain: MHTAPGWGYNLS
